The test concerns HEK293A TEAD-LUC reporter. Description: TEAD-luciferase reporter activity (YAP activation), robust Z score vs plate; higher = stronger YAP/TEAD activation. The note with it: 24 h.

Structures can show the parent of a compound that is named as a salt. The list shows a part of the results. Repeats in this data set agree poorly, so a single value says little.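 In a drug-repurposing library screen, luminescence reads luciferase driven by eight TEAD-binding elements, stably integrated into human kidney-derived cells. Compounds scoring over five robust Z scores above the plate mean are called hits.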

For the compound `CC(C)(O)c1ccccc1CC[C@@H](SCC1(CC(=O)O)CC1)c1cccc(/C=C/c2ccc3ccc(Cl)cc3n2)c1` [Montelukast sodium], the TEAD-luciferase reporter activity by setting is: (compound concentration: 200 nM) inactive: -0.131; (compound concentration: 2 uM) inactive: -0.639; (compound concentration: 10 uM) inactive: 1.06.
`CCCc1c(OCCCOc2ccc(-c3cscn3)c(OC)c2CC2CC2)ccc2c1OC(C(=O)O)CC2` (stereo not given): the TEAD-luciferase reporter activity was inactive: -0.338 (compound concentration: 200 nM), inactive: -1.41 (compound concentration: 2 uM) and inactive: -1.53 (compound concentration: 10 uM).
For the compound `CN[C@H](CNC(=O)N1CCC[C@@H]([C@@H](OCCNC(=O)OC)c2cccc(Cl)c2)C1)C[C@H]1CCCOC1`, the TEAD-luciferase reporter activity (compound concentration: 200 nM) is inactive: -0.263, the TEAD-luciferase reporter activity (compound concentration: 2 uM) is inactive: -0.546 and the TEAD-luciferase reporter activity (compound concentration: 10 uM) was inactive: -1.01.
In the same order, the values of `C[C@H](CN(C(=O)c1ccc(C#N)cc1)c1ccccn1)N1CCN(c2cccc3c2OCCO3)CC1` [lecozotan hydrochloride] are inactive: 3.11, inactive: 0.288 and inactive: -0.332.
Consider `CCc1ccc2occ(-c3nn[nH]n3)c(=O)c2c1`, for which the TEAD-luciferase reporter activity is inactive: -1.64 (compound concentration: 200 nM) and inactive: -0.4 (compound concentration: 10 uM).
With `Cc1ccccc1C(OCCN(C)C)c1ccccc1` (stereo not given) [Orphenadrine (citrate)], the TEAD-luciferase reporter activity reads like this: (compound concentration: 200 nM) inactive: -2.27; (compound concentration: 2 uM) inactive: -0.874; (compound concentration: 10 uM) inactive: -0.117.
Consider `CCn1c2c(c3ccccc31)CCSC2(C)CCN(C)C` (stereo not given) [tandamine], for which the TEAD-luciferase reporter activity is inactive: -1.37 (compound concentration: 200 nM), inactive: 0.397 (compound concentration: 2 uM) and inactive: 3.29 (compound concentration: 10 uM).
Turning to `C[C@@H](C(=O)Nc1ccc(Cl)cc1)[C@H]1CC[C@@H](c2ccnc3ccc(F)cc32)CC1`, the TEAD-luciferase reporter activity is inactive: -1.54 (compound concentration: 200 nM) and inactive: -1.28 (compound concentration: 10 uM).
On to `O=C(O)CCCCCCCC(=O)O` [Azelaic acid], for which, under “compound concentration: 2 uM”, the TEAD-luciferase reporter activity was inactive: -0.893.
For `O=C(O)CCCCCCCC(=O)O`, the TEAD-luciferase reporter activity is inactive: -0.359 (compound concentration: 200 nM) and inactive: 1.69 (compound concentration: 10 uM).
Take `CCn1c(=O)/c(=C2\Sc3ccccc3N2C)s/c1=C/c1cccc[n+]1CC`: the TEAD-luciferase reporter activity by setting is: (compound concentration: 200 nM) inactive: -0.0162; (compound concentration: 2 uM) inactive: 0.42; (compound concentration: 10 uM) inactive: -0.41.
Consider `O=c1[nH]c2ccc([S+]([O-])CCN3CCC(Cc4ccc(F)cc4)CC3)cc2o1` (stereo not given), for which the TEAD-luciferase reporter activity reads like this: (compound concentration: 200 nM) inactive: -0.0274; (compound concentration: 2 uM) inactive: 0.00705; (compound concentration: 10 uM) inactive: 0.361.
Regarding `CCCCC[C@H](O)/C=C/[C@@H]1[C@@H](C/C=C\CCCC(=O)O)[C@H](O)C[C@H]1O` [dinoprost], the TEAD-luciferase reporter activity (compound concentration: 2 uM) was inactive: 0.0653.
With `CCCCC[C@H](O)/C=C/[C@@H]1[C@@H](C/C=C\CCCC(=O)O)[C@H](O)C[C@H]1O`, the TEAD-luciferase reporter activity is inactive: -0.54 (compound concentration: 200 nM) and inactive: 1.48 (compound concentration: 10 uM).
`CC(C)=CCC[C@](C)(O[C@@H]1O[C@H](CO)[C@@H](O)[C@H](O)[C@H]1O)[C@H]1CC[C@]2(C)[C@@H]1[C@H](O)C[C@@H]1[C@@]3(C)CC[C@H](O[C@@H]4O[C@H](CO)[C@@H](O)[C@H](O)[C@H]4O[C@@H]4O[C@H](CO)[C@@H](O)[C@H](O)[C@H]4O)C(C)(C)[C@@H]3CC[C@]12C` [Ginsenoside Rd]: the TEAD-luciferase reporter activity was inactive: -0.413 (compound concentration: 200 nM), inactive: -0.164 (compound concentration: 2 uM) and inactive: 3.67 (compound concentration: 10 uM).
As to `CC(=O)Nc1ccc(OC(=O)CCCO[N+](=O)[O-])cc1` [Nitroparacetamol], the TEAD-luciferase reporter activity was inactive: -0.86 (compound concentration: 200 nM), inactive: -1.16 (compound concentration: 2 uM) and inactive: -0.0936 (compound concentration: 10 uM).
`C[N+](C)(C)C[C@H](N)CC(=O)O`: the TEAD-luciferase reporter activity reads like this: (compound concentration: 200 nM) inactive: -0.448; (compound concentration: 2 uM) inactive: -2.02; (compound concentration: 10 uM) inactive: -0.224.
For `CONC(=N)c1ccc(-c2ccc(-c3ccc(C(=N)NOC)cc3)o2)cc1` [pafuramidine] the same measures were inactive: 0.271, active: 5.76 and inactive: 3.86.
For `COC(=O)c1nc(C(F)(F)F)n2c1CN(C(=O)CC(N)Cc1cc(F)c(F)cc1F)CC2` (stereo not given) the same measures were inactive: -1.48, inactive: -1.73 and inactive: 0.584.
Consider `CC(C)c1cc(Oc2c(Br)cc(NC(=O)CC(=O)O)cc2Br)ccc1O` [eprotirome], for which, for the setting “compound concentration: 2 uM”, the TEAD-luciferase reporter activity is inactive: -1.01.
Turning to `CC(C)c1cc(Oc2c(Br)cc(NC(=O)CC(=O)O)cc2Br)ccc1O` [Eprotirome], the TEAD-luciferase reporter activity runs as follows: (compound concentration: 200 nM) inactive: -1.33; (compound concentration: 10 uM) inactive: 0.163.
As for `CC1=C(c2ccc(OC(=O)C(C)(C)C)cc2)[C@H](c2ccc(OCCN3CCCCC3)cc2)Oc2cc(OC(=O)C(C)(C)C)ccc21`, the TEAD-luciferase reporter activity is inactive: -0.791 (compound concentration: 200 nM), inactive: -1.26 (compound concentration: 2 uM) and inactive: 0.135 (compound concentration: 10 uM).
`C=CC(=O)Nc1cccc(Nc2nc(Nc3ccc(OCCOC)cc3)ncc2F)c1` [spebrutinib besylate]: the TEAD-luciferase reporter activity reads like this: (compound concentration: 200 nM) inactive: -0.821; (compound concentration: 2 uM) inactive: -1.42; (compound concentration: 10 uM) inactive: 2.09.
Regarding `Cc1cc(/N=N/c2ccc(S(N)(=O)=O)cc2)c(N)cc1N`, the TEAD-luciferase reporter activity is active: 6.61 (compound concentration: 200 nM), inactive: -0.0256 (compound concentration: 2 uM) and inactive: 1.01 (compound concentration: 10 uM).
With `COC[C@H]1C[C@@H](c2nc(-c3ccc4c(c3)COc3cc5c(ccc6nc([C@@H]7CC[C@H](C)N7C(=O)[C@@H](NC(=O)OC)C(C)C)[nH]c65)cc3-4)c[nH]2)N(C(=O)[C@H](NC(=O)OC)c2ccccc2)C1` [Velpatasvir], the TEAD-luciferase reporter activity runs as follows: (compound concentration: 200 nM) inactive: -1.32; (compound concentration: 2 uM) inactive: -0.11; (compound concentration: 10 uM) inactive: -0.145.
In the same order, the values of `CC(C)(O)CC(C)(O)c1ccc(Cl)cc1` (stereo not given) are inactive: 0.559, inactive: 0.0109 and inactive: -0.297.
Regarding `CN1C(=O)NC(c2ccccc2)C1=O` (stereo not given), the TEAD-luciferase reporter activity (compound concentration: 200 nM) is inactive: -0.345, the TEAD-luciferase reporter activity (compound concentration: 2 uM) was inactive: -0.363 and the TEAD-luciferase reporter activity (compound concentration: 10 uM) was inactive: 0.417.
